Assay results from publication PMC7540616.
Results are given in words; binding and its absence hold for the method and conditions named. Binding seen in cells or lysates may run through a third protein. Some results given as binding are weak or reduced against the parent protein; the word gives no strength. Sequences can lack the tags named with a protein.

Chains of the proteins cited; added tags and fusions are not shown.
UniProt Q640Z6: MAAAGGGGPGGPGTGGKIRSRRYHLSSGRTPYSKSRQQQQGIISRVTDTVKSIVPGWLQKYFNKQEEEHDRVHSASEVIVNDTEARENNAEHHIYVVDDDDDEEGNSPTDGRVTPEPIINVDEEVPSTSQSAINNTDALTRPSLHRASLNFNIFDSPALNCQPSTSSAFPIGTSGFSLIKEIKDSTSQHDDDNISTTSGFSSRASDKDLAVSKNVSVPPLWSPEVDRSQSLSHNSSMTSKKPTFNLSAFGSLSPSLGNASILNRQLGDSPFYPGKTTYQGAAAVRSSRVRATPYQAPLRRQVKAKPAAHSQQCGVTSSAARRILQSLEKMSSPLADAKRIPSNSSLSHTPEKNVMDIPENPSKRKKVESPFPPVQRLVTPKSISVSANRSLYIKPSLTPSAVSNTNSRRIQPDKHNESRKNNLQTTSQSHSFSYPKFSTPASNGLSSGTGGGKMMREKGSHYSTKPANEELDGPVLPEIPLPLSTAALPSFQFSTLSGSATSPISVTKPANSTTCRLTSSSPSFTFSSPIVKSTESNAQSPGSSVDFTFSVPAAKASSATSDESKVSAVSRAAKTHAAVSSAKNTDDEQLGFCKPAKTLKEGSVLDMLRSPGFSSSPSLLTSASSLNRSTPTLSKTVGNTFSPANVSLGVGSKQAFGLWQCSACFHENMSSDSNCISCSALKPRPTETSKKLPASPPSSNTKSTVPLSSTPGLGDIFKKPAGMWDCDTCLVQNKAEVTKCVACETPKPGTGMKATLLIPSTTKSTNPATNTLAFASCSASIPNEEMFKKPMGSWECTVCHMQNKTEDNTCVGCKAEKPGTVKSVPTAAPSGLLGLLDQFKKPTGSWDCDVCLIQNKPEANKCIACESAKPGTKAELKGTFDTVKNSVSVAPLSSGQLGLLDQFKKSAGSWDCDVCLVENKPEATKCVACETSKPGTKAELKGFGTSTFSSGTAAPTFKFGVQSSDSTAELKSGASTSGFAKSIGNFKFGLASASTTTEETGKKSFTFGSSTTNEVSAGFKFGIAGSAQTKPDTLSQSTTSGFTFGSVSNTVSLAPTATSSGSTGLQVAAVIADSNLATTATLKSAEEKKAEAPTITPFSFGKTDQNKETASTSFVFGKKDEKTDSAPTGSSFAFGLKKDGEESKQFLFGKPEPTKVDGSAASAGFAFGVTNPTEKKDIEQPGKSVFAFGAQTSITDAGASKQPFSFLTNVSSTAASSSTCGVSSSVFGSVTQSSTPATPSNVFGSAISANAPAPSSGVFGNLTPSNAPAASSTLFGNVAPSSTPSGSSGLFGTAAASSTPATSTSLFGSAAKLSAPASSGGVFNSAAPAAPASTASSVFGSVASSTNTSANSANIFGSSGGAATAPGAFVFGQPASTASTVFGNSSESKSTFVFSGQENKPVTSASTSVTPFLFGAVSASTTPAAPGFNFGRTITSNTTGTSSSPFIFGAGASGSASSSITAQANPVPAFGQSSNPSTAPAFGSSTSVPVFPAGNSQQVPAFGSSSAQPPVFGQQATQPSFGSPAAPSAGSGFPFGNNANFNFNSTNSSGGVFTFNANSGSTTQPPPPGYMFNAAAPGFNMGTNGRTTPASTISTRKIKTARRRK

Molecular target: T1, GST-hExportin-t (human (from the prefix h in hExportin-t)) (UniProt O43592)
T1 sequence: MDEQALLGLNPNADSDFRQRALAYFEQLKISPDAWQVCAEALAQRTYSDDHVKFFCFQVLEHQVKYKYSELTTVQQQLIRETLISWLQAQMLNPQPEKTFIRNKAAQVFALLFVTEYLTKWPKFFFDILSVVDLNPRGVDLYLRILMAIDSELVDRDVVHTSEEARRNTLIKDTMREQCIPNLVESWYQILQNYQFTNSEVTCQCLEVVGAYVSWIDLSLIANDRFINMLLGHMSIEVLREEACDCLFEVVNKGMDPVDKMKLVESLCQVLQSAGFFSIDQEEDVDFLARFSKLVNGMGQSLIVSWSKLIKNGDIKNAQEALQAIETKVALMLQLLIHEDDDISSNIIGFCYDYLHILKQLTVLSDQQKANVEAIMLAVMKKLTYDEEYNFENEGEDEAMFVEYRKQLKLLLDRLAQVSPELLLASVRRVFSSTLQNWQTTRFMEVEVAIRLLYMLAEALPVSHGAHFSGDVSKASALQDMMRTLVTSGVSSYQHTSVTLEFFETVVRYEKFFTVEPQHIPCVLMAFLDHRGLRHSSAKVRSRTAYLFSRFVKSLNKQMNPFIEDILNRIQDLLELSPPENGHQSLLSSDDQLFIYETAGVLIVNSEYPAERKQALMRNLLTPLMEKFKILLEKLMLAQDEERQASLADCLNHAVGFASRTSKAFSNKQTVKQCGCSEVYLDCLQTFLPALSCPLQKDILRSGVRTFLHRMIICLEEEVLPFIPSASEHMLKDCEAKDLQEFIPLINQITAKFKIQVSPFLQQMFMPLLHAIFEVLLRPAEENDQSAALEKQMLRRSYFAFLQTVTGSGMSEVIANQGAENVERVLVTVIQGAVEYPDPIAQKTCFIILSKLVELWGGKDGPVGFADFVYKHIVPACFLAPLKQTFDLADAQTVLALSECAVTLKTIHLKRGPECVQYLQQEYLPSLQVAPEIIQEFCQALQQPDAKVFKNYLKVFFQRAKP
Experiment: pull-down; GST, GST-xCrm1 or GST-hExportin-t (50 ug) on BSA-blocked glutathione agarose beads; 25 uL interphase Xenopus egg extract in 500 uL PBS, 4 C, 2 h, with or without 100 ug 6xHis-RanQ69L-GTP; washed with PBS+0.2% NP-40 then PBS; immunoblot (mAb414, anti-Nup133, anti-Nup98); only the target purified

**Q.** For Nup153 (from UniProt Q640Z6 1-1605), which binding is on record?
**A.** The binding was “binds”.
